{"source": "PubChem BioAssay AID1508588 (Peter MacCallum Cancer Centre, 2020)", "aim": "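Which gene losses make BRAF-mutant melanoma cells more responsive to vemurafenib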 (primary screen)", "cell system": "human WM266.4 melanoma cells (BRAF V600 mutant)", "reagent": "siRNA pool against human genes, 40 nM", "time to read-out": "96 h from transfection to read-out", "challenge": "vemurafenib 300 nM (about IC25), added 48 h after transfection, for 48 h; comparison arm got DMSO vehicle only", "detection": "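Cell gain (DAPI nuclei at end minus before drug, mean of two replicates) and medium lactate by absorbance per cell, both as ratio to non-targeting siRNA, also grouped into fold-change classes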", "scale": "cell gain with vemurafenib: higher = more cell gain than with non-targeting siRNA; lactate per cell with vemurafenib: higher = more lactate made per cell", "call rule": "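a knock-down counts as enhancing when its fold-change classes with vehicle and with vemurafenib, taken together, show a stronger drug effect on cell gain or lactate per cell; exact class pairs not stated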", "meaning of the calls": "active = enhances vemurafenib effect; inactive = no enhancement seen", "note": "This is an unselected part of about 18,000 reagents tested. 790 of all reagents (4.4%) were called active. 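Calls rest on a combination of fold-change classes in drug and vehicle arms, not all shown here.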"}
{"gene": "HIBCH", "cell gain with vemurafenib": 0.8, "lactate per cell with vemurafenib": 0.54, "call": "inactive"}
{"gene": "PRRC2C", "cell gain with vemurafenib": 0.44, "lactate per cell with vemurafenib": 1.02, "call": "inactive"}
{"gene": "RNASEH2B", "cell gain with vemurafenib": 0.83, "lactate per cell with vemurafenib": 0.94, "call": "inactive"}
{"gene": "ARSB", "cell gain with vemurafenib": 0.28, "lactate per cell with vemurafenib": 0.34, "call": "inactive"}
{"gene": "USHBP1", "cell gain with vemurafenib": 0.83, "lactate per cell with vemurafenib": 0.76, "call": "inactive"}
{"gene": "NFKBIB", "cell gain with vemurafenib": 0.45, "lactate per cell with vemurafenib": 2.07, "call": "inactive"}
{"gene": "LAMC3", "cell gain with vemurafenib": 0.7, "lactate per cell with vemurafenib": 1.27, "call": "inactive"}
{"gene": "BCL10", "cell gain with vemurafenib": 0.64, "lactate per cell with vemurafenib": 1.25, "call": "inactive"}
{"gene": "RACGAP1", "cell gain with vemurafenib": 0.25, "lactate per cell with vemurafenib": 2.02, "call": "inactive"}
{"gene": "NEUROD6", "cell gain with vemurafenib": 0, "lactate per cell with vemurafenib": 1.19, "call": "inactive"}
{"gene": "DACH2", "cell gain with vemurafenib": 0.65, "lactate per cell with vemurafenib": 1.12, "call": "inactive"}
{"gene": "GDI2", "cell gain with vemurafenib": 0.71, "lactate per cell with vemurafenib": 0.9, "call": "inactive"}
{"gene": "NCOR2", "cell gain with vemurafenib": 1.05, "lactate per cell with vemurafenib": 0.65, "call": "inactive"}
{"gene": "ZNF773", "cell gain with vemurafenib": 0.92, "lactate per cell with vemurafenib": 0.74, "call": "inactive"}
{"gene": "BCAR3", "cell gain with vemurafenib": 0.36, "lactate per cell with vemurafenib": 0.04, "call": "active"}
{"gene": "RITA1", "cell gain with vemurafenib": 0.84, "lactate per cell with vemurafenib": 1.17, "call": "inactive"}
{"gene": "CNIH3", "cell gain with vemurafenib": 0.6, "lactate per cell with vemurafenib": 0.62, "call": "inactive"}
{"gene": "SNRNP48", "cell gain with vemurafenib": 0.18, "lactate per cell with vemurafenib": 0.56, "call": "inactive"}
{"gene": "KCNJ1", "cell gain with vemurafenib": 0.51, "lactate per cell with vemurafenib": 0.83, "call": "inactive"}
{"gene": "NTNG1", "cell gain with vemurafenib": 0.63, "lactate per cell with vemurafenib": 0.64, "call": "inactive"}
{"gene": "EIF3I", "cell gain with vemurafenib": 0.11, "lactate per cell with vemurafenib": 1.38, "call": "inactive"}
{"gene": "GNAQ", "cell gain with vemurafenib": 0.27, "lactate per cell with vemurafenib": 0.34, "call": "inactive"}
{"gene": "TIFA", "cell gain with vemurafenib": 0.22, "lactate per cell with vemurafenib": 0.73, "call": "inactive"}
{"gene": "TAFAZZIN", "cell gain with vemurafenib": 0.7, "lactate per cell with vemurafenib": 0.5, "call": "inactive"}
{"gene": "GBP2", "cell gain with vemurafenib": 1.19, "lactate per cell with vemurafenib": 0.67, "call": "inactive"}
{"gene": "NDUFC1", "cell gain with vemurafenib": 0.39, "lactate per cell with vemurafenib": 0.88, "call": "inactive"}
{"gene": "PRM1", "cell gain with vemurafenib": 0.7, "lactate per cell with vemurafenib": 0.84, "call": "inactive"}
{"gene": "NXF3", "cell gain with vemurafenib": 0.03, "lactate per cell with vemurafenib": 2.3, "call": "inactive"}
{"gene": "FKBP5", "cell gain with vemurafenib": 0.85, "lactate per cell with vemurafenib": 1, "call": "inactive"}
{"gene": "HEY2", "cell gain with vemurafenib": 0.65, "lactate per cell with vemurafenib": 0.94, "call": "inactive"}
{"gene": "POTED", "cell gain with vemurafenib": 0.79, "lactate per cell with vemurafenib": 0.49, "call": "inactive"}
{"gene": "MET", "cell gain with vemurafenib": 0.41, "lactate per cell with vemurafenib": 0.59, "call": "inactive"}
{"gene": "AURKAIP1", "cell gain with vemurafenib": 0.74, "lactate per cell with vemurafenib": 1.56, "call": "inactive"}
{"gene": "HEPACAM2", "cell gain with vemurafenib": 0.68, "lactate per cell with vemurafenib": 0.74, "call": "inactive"}
{"gene": "COX4I2", "cell gain with vemurafenib": 0.35, "lactate per cell with vemurafenib": 0.88, "call": "inactive"}
{"gene": "EFTUD2", "cell gain with vemurafenib": 0.11, "lactate per cell with vemurafenib": 1.76, "call": "inactive"}
{"gene": "GALNT2", "cell gain with vemurafenib": 0.35, "lactate per cell with vemurafenib": 0.36, "call": "active"}
{"gene": "CACNB2", "cell gain with vemurafenib": 0.99, "lactate per cell with vemurafenib": 0.46, "call": "inactive"}
{"gene": "LRRC37B", "cell gain with vemurafenib": 0.8, "lactate per cell with vemurafenib": 0.81, "call": "inactive"}
{"gene": "MEOX1", "cell gain with vemurafenib": 1.23, "lactate per cell with vemurafenib": 0.66, "call": "inactive"}

Reagents above marked active, once more:
{"gene": "BCAR3", "cell gain with vemurafenib": 0.36, "lactate per cell with vemurafenib": 0.04, "call": "active"}
{"gene": "GALNT2", "cell gain with vemurafenib": 0.35, "lactate per cell with vemurafenib": 0.36, "call": "active"}
